Measurements: the supplement of paper PMC3334620
Whole data set: some 33,000 sequences, median “E-score (-0.5 to 0.5)” near -0.015, cut for the highest 2% near 0.3. The list shows a part of the results.

biological target: T1, Abf1 (UniProt P14164); assay: PBM E-score (8-mer binding enrichment) (E-score (-0.5 to 0.5)); higher = stronger / more preferred TF binding; settings: protein concentration: 200 nM; construct: GST-full length
T1 sequence: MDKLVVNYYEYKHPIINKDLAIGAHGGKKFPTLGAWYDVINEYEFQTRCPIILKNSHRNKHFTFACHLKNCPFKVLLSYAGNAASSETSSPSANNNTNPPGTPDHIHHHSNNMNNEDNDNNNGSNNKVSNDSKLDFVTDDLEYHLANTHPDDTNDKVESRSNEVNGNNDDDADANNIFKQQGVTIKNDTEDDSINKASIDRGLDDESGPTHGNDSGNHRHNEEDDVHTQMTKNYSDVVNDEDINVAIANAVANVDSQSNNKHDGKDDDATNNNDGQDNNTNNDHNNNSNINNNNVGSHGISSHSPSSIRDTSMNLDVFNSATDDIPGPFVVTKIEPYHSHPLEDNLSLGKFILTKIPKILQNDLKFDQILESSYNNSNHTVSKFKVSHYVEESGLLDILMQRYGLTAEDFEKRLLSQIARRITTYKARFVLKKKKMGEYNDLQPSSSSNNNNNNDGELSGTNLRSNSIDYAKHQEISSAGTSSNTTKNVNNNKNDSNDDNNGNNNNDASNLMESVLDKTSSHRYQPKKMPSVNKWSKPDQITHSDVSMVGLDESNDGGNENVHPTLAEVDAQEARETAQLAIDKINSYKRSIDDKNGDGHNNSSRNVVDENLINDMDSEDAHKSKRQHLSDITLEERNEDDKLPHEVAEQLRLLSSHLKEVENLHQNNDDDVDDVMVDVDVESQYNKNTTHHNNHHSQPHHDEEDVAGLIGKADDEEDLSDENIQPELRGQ
Summary of the method: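 PURExpress in vitro transcription/translation supplied GST-tagged yeast transcription factors, either full-length or DNA-binding domain. Applied at about 100-200 nM to universal all-10-mer Agilent arrays double-stranded by primer extension, the bound protein was detected with fluorescent anti-GST. E-scores, modified Wilcoxon-Mann-Whitney statistics, were given by the Universal PBM Analysis Suite to ungapped eight-base words pooled with their reverse complements after masliner normalisation.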

Sequence | PBM E-score
GCCGGCCA | 0.0934
ACCCCAAT | -0.176
GAGCTAAC | -0.0892
AGTCAGTC | -0.197
AATTCCGG | -0.0708
CGACCATC | 0.0447
CATCCACA | 0.161
AGTAACTC | 0.032
GTCCCACA | -0.0496
AACTTGAG | -0.247
ATGTGCTA | 0.00032
ATCGAAGG | 0.00682
GTGTGAAA | 0.139
ACGCTAAG | -0.193
GGACAGGA | -0.117
GTAGTACA | 0.127
ATCACGAT | 0.26
CCCACCGA | -0.261
GGCAGATA | 0.0862
CGATTTCC | 0.0575
CAGGTCAC | 0.26
ACGCTTTA | -0.0323

Sequence | PBM E-score
TAATCTGA | 0.107
GCCGTCGC | 0.153
CTATCTGA | 0.0155
GGTTAAGA | 0.0346
ACGCAGAG | -0.18
AGCAAAGG | -0.096
GGCGATTA | 0.129
AATGCTAA | 0.00906
AGTGTGGG | -0.169
CAGGCGAC | 0.108
ATTTCGAA | 0.113
CTTGTCCC | -0.0642
CTTTTATC | 0.129
GAAACTCC | -0.109
AGTAAGAC | -0.0233
TCAGATCA | 0.153
GTACGAGA | 0.277
ACATGACC | 0.137
GGTGAAAC | 0.0128
AAGCTATA | -0.0525
CGAAATAC | 0.221
GTTGCGTA | 0.212

Already shown: entries from further up.
Sequence | PBM E-score
CTTTTATC | 0.129
GAAACTCC | -0.109
AGTAAGAC | -0.0233
TCAGATCA | 0.153
GTACGAGA | 0.277

Further results follow:

Sequence | PBM E-score
CAGCCATG | -0.0374
CGTAACGC | 0.00536
AGGTCAAG | -0.242
GCAGCTCC | -0.312
CCCGCTTA | -0.129
CAAGGGTC | -0.0615
AGCAAATA | 0.0692
GGCTCTAA | -0.215
TACTAGAA | -0.014
GGTTAGAA | 0.0152
CGAGGTGC | 0.0393
GCTAGCTA | -0.107
ACGTAAGC | -0.0114
AACGGAGT | 0.0865
ATCTCGTA | 0.188
ATGGAGAC | 0.205
CATGCACC | -0.0237
CTCGAGTC | -0.0161
GAGCCCAA | -0.134
ATTATATC | 0.171
CTGCGTGA | 0.135
AAGATTGC | 0.0157

Sequence | PBM E-score
GGGTTGCA | -0.0243
GGTATGAA | -0.0573
CCAGATAG | -0.216
AAAGTTAT | 0.123
CGGTATTC | 0.166
TAGTACGA | 0.287
CCCCCCTC | -0.399
TATAGTAA | 0.15
ACCAATTA | 0.116
GACAACAC | 0.0709
AAGCGCAT | -0.0811
CGAGTCGC | -0.00595
ACGGAGGC | -0.179
GGAGTTGA | 0.0171
GATCACGC | 0.366
TCCCGCAA | -0.285
CGTGACGA | 0.351
ACACTACA | 0.169
ACTCTCCG | -0.0264
CTCCTAGC | -0.302
